Data source: PubChem BioAssay AID743454 (Peter MacCallum Cancer Centre, 2014)
The whole screen tested about 18,000 reagents; this is an unselected part. 450 of all reagents (2.5%) count as active. 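Single biological run; no consistent viability z cut-off exists, so the class columns, not z-scores, define the calls.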

Test: 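Genes whose loss kills vorinostat-resistant colon cancer cells under vorinostat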 (primary screen)
Cells: human HCT116-VR colon cancer cells, selected for vorinostat resistance
Reagent: siRNA pool against human genes, 40 nM siRNA pool
Timing: vorinostat for 24 h, read-out about 72 h after transfection
Challenge: vorinostat at 2.5 µM final
Detection: 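Two measures, CellTiter-Fluor viability and luminescent caspase 3/7 activity, each as fold change against same-plate mock wells, mean of duplicates, then screen-wide robust z-score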
Reading the numbers: viability robust z-score: higher = more viable cells than screen typical; caspase robust z-score: higher = more caspase 3/7 activity than screen typical
Hit rule: 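a knock-down is a hit when classed RV1 or RV2 for lowered viability, or CA1 or CA2 for caspase activation; those lethal without drug were dropped; hits were retested singly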

{"gene knocked down":"TMEM100 (GeneID 55273)","viability hit class":"no change","caspase hit class":"no change","viability robust z-score":-0.68,"caspase robust z-score":0.44,"call":"inactive"}
{"gene knocked down":"CHST11 (GeneID 50515)","viability hit class":"no change","caspase hit class":"no change","viability robust z-score":-1.92,"caspase robust z-score":1.77,"call":"inactive"}
{"gene knocked down":"NEMF (GeneID 9147)","viability hit class":"no change","caspase hit class":"no change","viability robust z-score":0.22,"caspase robust z-score":1.54,"call":"inactive"}
{"gene knocked down":"VASH1 (GeneID 22846)","viability hit class":"no change","caspase hit class":"no change","viability robust z-score":-0.16,"caspase robust z-score":-0.7,"call":"inactive"}
{"gene knocked down":"HTR1F (GeneID 3355)","viability hit class":"no change","caspase hit class":"no change","viability robust z-score":0.18,"caspase robust z-score":-0.44,"call":"inactive"}
{"gene knocked down":"CEP192 (GeneID 55125)","viability hit class":"no change","caspase hit class":"no change","viability robust z-score":-0.34,"caspase robust z-score":0.24,"call":"inactive"}
{"gene knocked down":"DNASE2 (GeneID 1777)","viability hit class":"no change","caspase hit class":"no change","viability robust z-score":0.08,"caspase robust z-score":1.84,"call":"inactive"}
{"gene knocked down":"CLCN1 (GeneID 1180)","viability hit class":"no change","caspase hit class":"no change","viability robust z-score":-1.25,"caspase robust z-score":-0.22,"call":"inactive"}
{"gene knocked down":"PRSS35 (GeneID 167681)","viability hit class":"no change","caspase hit class":"no change","viability robust z-score":0.08,"caspase robust z-score":0.12,"call":"inactive"}
{"gene knocked down":"ACER3 (GeneID 55331)","viability hit class":"no change","caspase hit class":"no change","viability robust z-score":0.82,"caspase robust z-score":-0.02,"call":"inactive"}
{"gene knocked down":"SLC6A14 (GeneID 11254)","viability hit class":"no change","caspase hit class":"no change","viability robust z-score":-0.18,"caspase robust z-score":0.57,"call":"inactive"}
{"gene knocked down":"HHAT (GeneID 55733)","viability hit class":"no change","caspase hit class":"no change","viability robust z-score":-1.34,"caspase robust z-score":-0.2,"call":"inactive"}
